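Plate-reader measure of the Venus reporter marking one vaccinia stage in infected cells (the cell line is not named here); read time unknown. The test concentration is not given here. Percent change in Venus reporter signal; lower (more negative) values mean stronger inhibition of that viral stage.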

Values are in %. How 0% and 100% were set is not given here. Common to all entries: measured here: Venus reporter, other viral stage. This is a side read-out of the assay, for part of the compounds, not drawn at random.

- C[C@@H]1CN([C@@H](C)CO)C(=O)Cc2cc(NS(=O)(=O)c3ccccc3)ccc2O[C@H]1CN(C)Cc1ccc(Cl)c(Cl)c1 : activity change (Venus) -87.29%
- COc1cccc(C(=O)Nc2ccc3c(c2)C(=O)N(C)[C@@H]2CC[C@@H](CC(=O)N[C@@H](C)c4ccccc4)O[C@H]2CO3)c1 : activity change (Venus) -42.35%
- CCCN1[C@H](C(=O)NCC2CC2)[C@@H](CO)[C@@H]2Cn3c(ccc(/C=C/c4ccccc4)c3=O)[C@@H]21 : activity change (Venus) -3.203%
- C[C@H](CO)N1C[C@H](C)[C@H](CN(C)Cc2ccccc2)Oc2cc(Br)ccc2S1(=O)=O : activity change (Venus) -26.6%
- CN1CCCCN2[C@@H](CO)[C@@H](c3ccc(-c4ccc(F)cc4)cc3)[C@@H]2C1 : activity change (Venus) -23.28%
- C[C@H]1CN([C@@H](C)CO)C(=O)c2c(c3ccccc3n2C)-c2ccccc2CO[C@H]1CN(C)C(=O)[C@@H](Cc1ccccc1)N(C)C : activity change (Venus) -57.81%
- COc1ccc([Si](C)(C)[C@@H]2[C@@H](CCO)O[C@]3(C(=O)N(Cc4ccc(N5CCCCC5=O)cc4)c4ccccc43)[C@H]2C)cc1 : activity change (Venus) -48.3%
- C[C@@H]1CCCCO[C@@H](CN(C)S(=O)(=O)c2cccs2)[C@H](C)CN([C@H](C)CO)C(=O)c2cc(NS(=O)(=O)c3cccs3)ccc2O1 : activity change (Venus) -40.87%
- C[C@H](CO)N1C[C@H](C)[C@H](CN(C)C(=O)c2ccccc2)Oc2cc(C3=CCCCC3)ccc2S1(=O)=O : activity change (Venus) -34.14%
- CCCNC(=O)N(C)C[C@H]1Oc2cc(-c3ccc(C)cc3)ccc2S(=O)(=O)N([C@@H](C)CO)C[C@@H]1C : activity change (Venus) -39.23%
- O=C(NC1CCCC1)N1CCCCN2[C@H](C1)[C@@H](c1ccc(/C=C/c3ccccc3)cc1)[C@@H]2CO : activity change (Venus) -76.04%
- O=C(C1CCC1)N1CCCCN2[C@@H](CO)[C@@H](c3ccc(C#CC4CCCC4)cc3)[C@@H]2C1 : activity change (Venus) -25.86%
- C[C@@H]1CN([C@@H](C)CO)C(=O)c2cc(NC(=O)c3ccccc3)ccc2O[C@@H](C)CCCCO[C@H]1CN(C)C(=O)Nc1cccc2ccccc12 : activity change (Venus) -77.91%
- C[C@H]1CN([C@@H](C)CO)S(=O)(=O)c2ccc(/C=C/c3ccccc3)cc2O[C@H]1CN(C)C(=O)C1CC1 : activity change (Venus) -46.48%
- CC(C)COC(=O)N(C)C[C@@H]1OCc2ccccc2-c2c(n(C)c3ccccc23)C(=O)N([C@H](C)CO)C[C@@H]1C : activity change (Venus) -43.96%
- COC(=O)[C@]1(Cc2ccccc2)N=C(c2ccc(OCCCO)cc2)O[C@@H]1c1ccccc1CN=[N+]=[N-] : activity change (Venus) -65.03%
- C[C@@H]1CN([C@H](C)CO)S(=O)(=O)c2ccc(-c3ccccc3)cc2O[C@H]1CN(C)S(=O)(=O)c1ccccc1F : activity change (Venus) -55.53%
- COc1ccc(S(=O)(=O)Nc2ccc3c(c2)C(=O)N([C@H](C)CO)C[C@@H](C)[C@@H](CN(C)Cc2ccc(-c4ccccc4)cc2)O3)cc1 : activity change (Venus) -28.68%
- COc1ccc2c3c([nH]c2c1)[C@@H](CO)N(C(=O)C1CC1)CC31CCN(Cc2cccc(F)c2)CC1 : activity change (Venus) -54.99%
- CC(C)CC#Cc1ccc2c(c1)O[C@@H](CN(C)C(=O)NC(C)C)[C@@H](C)CN([C@@H](C)CO)S2(=O)=O : activity change (Venus) -46.11%
- OC[C@@H]1[C@@H](c2ccc(/C=C/c3ccccc3)cc2)[C@H]2CN(Cc3cccnc3)CCCCN12 : activity change (Venus) -29.81%
- C[C@H](CO)N1C[C@H](C)[C@H](CN(C)Cc2ccc(Cl)c(Cl)c2)OCc2cnnn2CCCC1=O : activity change (Venus) -43.38%
- Cc1ccc(S(=O)(=O)N(C)C[C@@H]2OCCCC[C@@H](C)Oc3ccc(NC(=O)c4ccncc4)cc3C(=O)N([C@@H](C)CO)C[C@H]2C)cc1 : activity change (Venus) -22.6%
- O=C(Nc1cccc(F)c1)N1C[C@@H]2N[C@H](C1)C2c1ccc(-c2ccc(F)cc2)cc1 (stereo not given in full) : activity change (Venus) -77.13%

Data taken from PubChem BioAssay AID1053133, deposited by Broad Institute (2014).